From the supplement of paper PMC8166895
Where “and” joins values, the source holds several entries; their conditions need not be identical. Equal values may be shown once. Where a name gives a salt, the structure may show the parent alone. Some of the results follow. Most values lie at the level of the controls, where differences are scatter.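 Melting temperature was read by differential scanning fluorimetry in a single-replicate pilot screen of a library of approved drugs and clinical or known-target compounds. Compounds raising the melting point by at least 2 °C were the top stabilizing hits, and negative shifts mean destabilization.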 Where a SMILES comes first, the peptide text is derived from it. The star is where a group is joined. Cbz = O=C(OCc1ccccc1)*; CH2F = FC*

tested on: SARS-CoV-2 main protease (Mpro, nsp5); assay: thermal shift ΔTm of Mpro relative to plate average Tm; higher = stronger thermal stabilization of Mpro (binding); settings: 10 µM; protein concentration 1 µM

Point of comparison: `CC[C@H]1OC(=O)C[C@@H](O)[C@H](C)[C@@H](O[C@@H]2O[C@H](C)[C@@H](O[C@H]3C[C@@](C)(O)[C@@H](O)[C@H](C)O3)[C@H](N(C)C)[C@H]2O)[C@@H](CC=O)C[C@@H](C)C(=O)/C=C/C(C)=C/[C@@H]1CO[C@@H]1O[C@H](C)[C@@H](O)[C@@H](OC)[C@H]1OC` [Tylosin tartrate], “thermal shift ΔTm of Mpro” value 0.0675 °C. Against it:
- CC1(C)S[C@@H]2[C@H](NC(=O)[C@H](NC(=O)N3CCNC3=O)c3ccccc3)C(=O)N2[C@H]1C(=O)O [Azlocillin sodium salt] — lower, 0.0159 °C
- CC(C)c1ccc2oc3nc(N)c(C(=O)O)cc3c(=O)c2c1 [Amlexanox] — higher, 0.115 °C
- CCn1c2ccccc2c2cc(Nc3ccnc(NCCCN4CCOCC4)n3)ccc21 — lower, -0.357 °C
- CC1=C(O)C(=O)C=C2C1=CC=C1[C@@]2(C)CC[C@@]2(C)[C@@H]3C[C@](C)(C(=O)O)CC[C@]3(C)CC[C@]12C [Celastrol] — higher, 0.193 °C
- CC(C)(O)C(Cl)(Cl)Cl [Chlorobutanol] — higher, 0.218 °C
- Cc1cc(-c2nnc(N)nc2-c2ccc(F)cc2)cc(Cl)n1 — lower, -0.0421 °C
- Cc1cc2c(cc1S(N)(=O)=O)S(=O)(=O)CCC2 [Meticrane] — lower, -0.00985 °C
- COCCOc1cnc2ccn([C@H](C)c3nnc4c(F)cc(-c5cnn(C)c5)cn34)c(=O)c2c1 — lower, -0.0706 °C
- Cc1c(NC(=O)c2cc(C(N)=O)nc3cc(F)ccc23)c(C(F)(F)F)nn1Cc1ccc(C#N)cc1 — lower, -0.00333 °C
- Oc1cccc2cccnc12 [Hydroxyquinoline] — lower, 0.0459 °C
- NCCNCCNCCNCCN [Tetraethylenepentamine Pentahydrochloride] — higher, 0.256 °C
- Clc1cnccn1 [2-Chloropyrazine] — higher, 0.217 °C
- CC(C)OC(=O)[C@H](C)N[P@](=O)(OC[C@H]1O[C@@H](n2ccc(=O)[nH]c2=O)[C@](C)(F)[C@@H]1O)Oc1ccccc1 [Sofosbuvir (PSI-7977, GS-7977)] — lower, -0.0447 °C
- Nc1nc2c(ncn2[C@@H]2O[C@H](CO)[C@@H](O)[C@H]2O)c(=O)[nH]1 [Guanosine] — lower, 0.0217 °C
- CN1C(C)(C)CCCC1(C)C [Pempidine] — lower, 0.0168 °C
- C[C@@]1(F)[C@H](O)[C@@H](CO)O[C@H]1n1ccc(=O)[nH]c1=O — higher, 0.374 °C
- Cn1cc(-c2ccc3ncc(Cc4ccc5ncccc5c4)n3n2)cn1 — lower, -0.0696 °C
- COc1cc2ncnc(N(C)c3cccc(Br)c3)c2cc1OC — lower, -0.0206 °C
- CCN(CC)CCOCCO [Diethylaminoethoxyethanol] — higher, 0.154 °C
- Cc1cc(NC(=O)Nc2ccc(N(C)C)cc2)c2cc(F)cc(F)c2n1 — lower, -0.0543 °C
- Cc1onc(-c2c(Cl)cccc2Cl)c1C(=O)N[C@@H]1C(=O)N2[C@@H]1SC(C)(C)[C@@H]2C(=O)O [Dicloxacillin Sodium] — lower, -0.0877 °C
- CN(C)/N=N/c1[nH]cnc1C(N)=O [Dacarbazine] — higher, 0.239 °C
- CC1C(=O)OC2C(O)C34C5CC(C(C)(C)C)C36C(OC(=O)C6O)OC4(C(=O)O5)C12O (stereo not given) [Ginkgolide B] — higher, 0.388 °C
- COCCCOc1ccnc(CSc2nc3ccccc3[nH]2)c1C [Rabeprazole Related Compound E] — higher, 0.139 °C
- O=c1ccc2ccc(OCCCCN3CCN(c4cccc5sccc45)CC3)cc2[nH]1 [Brexpiprazole] — lower, 0.00226 °C
- CC1CC(OC(=O)C(O)c2ccccc2)CC(C)(C)C1 (stereo not given) [Cyclandelate] — lower, -0.0869 °C
- COc1ccc(C(Cl)=C(c2ccc(OC)cc2)c2ccc(OC)cc2)cc1 [Chlorotrianisene] — lower, -0.027 °C
- Cc1oncc1C(=O)Nc1ccc(C(F)(F)F)cc1 [Leflunomide] — higher, 0.183 °C
- CCOC(=O)c1c(N)sc2c1CCN(Cc1ccccc1)C2 [Tinoridine hydrochloride] — lower, -0.228 °C
- O=C(O)c1cccnc1Nc1cccc(C(F)(F)F)c1 [Niflumic acid] — higher, 0.134 °C
- Cc1cn([C@H]2O[C@@H](CO)[C@H](O)[C@H]2F)c(=O)[nH]c1=O [Clevudine] — lower, -0.0873 °C
- CC(CCc1ccccc1)NCC(O)c1ccc(O)c(C(N)=O)c1 (stereo not given) [Labetalol HCl] — lower, 0.045 °C
- NC1(C(=O)N[C@@H](CCO)c2ccc(Cl)cc2)CCN(c2ncnc3[nH]ccc23)CC1 — lower, -0.227 °C
- CCOC(=O)[C@H](CCc1ccccc1)N[C@@H](C)C(=O)N1Cc2ccccc2C[C@H]1C(=O)O [Quinapril HCl] — higher, 0.0714 °C
- Cc1cc(C)nc(O)n1.O=C(Nc1ccc([N+](=O)[O-])cc1)Nc1ccc([N+](=O)[O-])cc1 [Nicarbazin] — higher, 0.154 °C
- NC(Cc1ccc(Cl)cc1)C(=O)O (stereo not given) [Fenchlonine] — higher, 0.228 °C
- Cc1cc(C(C)(C)C)c(O)c(C)c1CC1=NCCN1 [Oxymetazoline hydrochloride] — lower, -0.00545 °C
- CC(=O)O[C@]1(C(C)=O)CC[C@H]2[C@@H]3C[C@H](C)C4=CC(=O)C=C[C@]4(C)[C@@]3(F)[C@@H](O)C[C@@]21C [Fluorometholone Acetate] — lower, -0.121 °C
- CCCC(CCC)C(=O)NCC(N)=O [Valrocemide] — lower, -0.0352 °C
- Cc1ccc(-c2csc(NC(=O)c3ccccc3)n2)c(C)c1 — lower, -0.157 °C
- Cc1cc2cc(Oc3ccnc(Nc4cccc(CS(=O)(=O)NCCN(C)C)c4)n3)ccc2[nH]1 [Sulfatinib] — higher, 0.0817 °C
- COc1ccc([C@@H]2CC(=O)c3c(O)cc(O[C@@H]4O[C@H](CO[C@@H]5O[C@@H](C)[C@H](O)[C@@H](O)[C@H]5O)[C@@H](O)[C@H](O)[C@H]4O)cc3O2)cc1O [Hesperidin] — lower, -0.257 °C
- COc1cc(-n2c(=S)[nH]c3ccccc3c2=O)c(Cl)cc1Cl [Mdivi-1] — lower, -0.0233 °C
- CCCCc1nc(-c2ccc(OCCCN(CC)CC)cc2)cn1-c1ccc(Oc2ccc(Cl)cc2)cc1 [Azeliragon] — lower, -0.34 °C
- CC(C)(C(=O)O)c1ccc(C(O)CCCN2CCC(C(O)(c3ccccc3)c3ccccc3)CC2)cc1 (stereo not given) [Fexofenadine HCl] — lower, -0.0187 °C
- O=c1cc(N2CCOCC2)oc2c(-c3cccc4c3sc3ccccc34)cccc12 — lower, -0.647 °C
- C[N+]1(C)[C@@H]2CC[C@H]1C[C@@H](OC(=O)C(O)c1ccccc1)C2 (stereo not given in full) [Homatropine Methylbromide] — lower, -0.0635 °C
- Cc1ccccc1-c1cc(N2CCN(C)CC2)ncc1N(C)C(=O)C(C)(C)c1cc(C(F)(F)F)cc(C(F)(F)F)c1 [Netupitant] — lower, -0.292 °C
- COC(c1ccccc1)(c1ccccc1)[C@H](Oc1nc(C)cc(C)n1)C(=O)O [Ambrisentan] — higher, 0.173 °C
- CC(=O)Nc1ccc(Cc2ccc(NC(C)=O)cc2)cc1 — lower, -0.189 °C
- Cc1noc2c1-c1ccc(-c3cnn(C)c3)cc1C(c1ccc(Cl)cc1)=N[C@H]2CC(N)=O [BET bromodomain inhibitor] — lower, 0.0284 °C
- CO/N=C(\C(=O)N[C@@H]1C(=O)N2C(C(=O)[O-])=C(C[n+]3cccc4c3CCCC4)CS[C@H]12)c1csc(N)n1 [Cefquinome sulfate] — higher, 0.282 °C
- CC(C)N(C[C@H]1O[C@@H](n2cnc3c(N)ncnc32)[C@H](O)[C@@H]1O)[C@H]1C[C@@H](CCc2nc3cc(C(C)(C)C)ccc3[nH]2)C1 — lower, -0.0616 °C
- COC(=O)C1=C(C)NC(C)=C(C(=O)OCCN2CCN(C(c3ccccc3)c3ccccc3)CC2)C1c1cccc([N+](=O)[O-])c1 (stereo not given) [Manidipine] — lower, 0.0612 °C
- COC(=O)C1=C(C)NC(C)=C(C(=O)OCCN2CCN(C(c3ccccc3)c3ccccc3)CC2)C1c1cccc([N+](=O)[O-])c1 (stereo not given) [Manidipine 2HCl] — lower, 0.0177 °C
- COC(=O)C[C@H](NC(=O)[C@H](C)NC(=O)[C@@H](NC(=O)OCc1ccccc1)C(C)C)C(=O)CF (Cbz-Val-Ala-Asp(OMe)-CH2F) — higher, 7.41 °C
- CCCN1C[C@H](CSC)C[C@@H]2c3cccc4[nH]cc(c34)C[C@H]21 [Pergolide mesylate] — lower, -0.0781 °C
- Cc1cc(C(N)=O)ccc1-n1c(CCC(=O)O)ccc1-c1ccc(-n2ccnc2)cc1 — higher, 0.0821 °C
- CC(=O)Nc1ccccc1 [Acetanilide] — lower, -0.0973 °C
- O=C(/C=C/c1ccc2ccccc2n1)c1ccncc1 — lower, -0.311 °C
- O=C(NCCCn1ccnc1)c1cc(-c2ccco2)on1 — lower, -0.0646 °C
- Clc1ccc(NN=C(c2ccccc2)c2ccccn2)nc1 — lower, 0.0593 °C
- O=C(N/N=C/c1cc(O)c(O)cc1O)c1cc2ccccc2cc1O [Dyngo-4a] — higher, 0.737 °C
- CC(C)(C)C(=O)Oc1ccc(S(=O)(=O)Nc2ccccc2C(=O)NCC(=O)O)cc1 [Sivelestat] — higher, 0.146 °C
- CC(C(=O)O)c1ccc2c(c1)Cc1cccnc1O2 (stereo not given) [Pranoprofen] — higher, 0.192 °C
- C[C@H]1COc2c(C3(N)CC3)c(F)cc3c(=O)c(C(=O)O)cn1c23 [Pazufloxacin Mesylate] — lower, -0.199 °C
- O=C(/C=C/c1ccc(O)c(O)c1)c1ccc(O)cc1O [Butein] — higher, 1.46 °C
- C[C@H](Oc1ccc(S(C)(=O)=O)cc1C(=O)N1CCN(c2ncc(C(F)(F)F)cc2F)CC1)C(F)(F)F [Bitopertin] — lower, -0.0836 °C
- O=C(Cl)C(=O)c1c[nH]c2ccccc12 [Indole-3-Glyoxylyl Chloride] — lower, 0.0433 °C
- COc1ccc(Cl)cc1-c1cc(=O)[nH]c(=S)n1CC(N)=O — lower, 0.015 °C
- O=C(CCCCCCC(=O)Nc1ccccc1)NO [Vorinostat (SAHA, MK0683)] — lower, -0.0843 °C
- CCNC(=O)CCC/C=C\C[C@@H]1[C@@H](/C=C/[C@@H](O)CCc2ccccc2)[C@H](O)C[C@@H]1O [Bimatoprost] — higher, 0.188 °C
- COC(=O)C1=C(C)NC(C)=C(C(=O)OC2CCCN(Cc3ccccc3)C2)C1c1cccc([N+](=O)[O-])c1 (stereo not given) [Benidipine HCl] — lower, -0.172 °C

`O=C1[C@H](Cc2ccc(O)cc2)N2C(=O)CCN(C(=O)NCc3ccccc3)[C@H]2CN1Cc1cccc2ccccc12` was tested, and the “thermal shift ΔTm of Mpro” value was 0.16 °C and 0.0929 °C.
